Test results reported in article doi:10.1101/2023.09.28.559965.
No constants are given. Whether binding was seen depends on the method and setting. Binding seen in cells or lysates may run through a third protein. Some binding calls cover weakened binding; strength is not graded here.

By UniProt entry, the sequences of proteins in these tests, tags left out.
UniProt P08670: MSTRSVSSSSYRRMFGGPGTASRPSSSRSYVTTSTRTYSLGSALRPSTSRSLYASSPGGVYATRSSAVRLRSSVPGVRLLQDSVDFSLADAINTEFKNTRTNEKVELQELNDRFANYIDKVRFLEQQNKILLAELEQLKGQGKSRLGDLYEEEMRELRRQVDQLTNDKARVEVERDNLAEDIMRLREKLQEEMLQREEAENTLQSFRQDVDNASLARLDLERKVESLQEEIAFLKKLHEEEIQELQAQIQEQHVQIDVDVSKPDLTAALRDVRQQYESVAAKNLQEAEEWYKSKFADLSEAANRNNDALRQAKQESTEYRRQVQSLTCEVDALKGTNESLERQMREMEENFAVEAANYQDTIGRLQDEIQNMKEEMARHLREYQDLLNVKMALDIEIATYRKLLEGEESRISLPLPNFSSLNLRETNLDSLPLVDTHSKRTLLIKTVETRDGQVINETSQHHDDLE
UniProt P15924: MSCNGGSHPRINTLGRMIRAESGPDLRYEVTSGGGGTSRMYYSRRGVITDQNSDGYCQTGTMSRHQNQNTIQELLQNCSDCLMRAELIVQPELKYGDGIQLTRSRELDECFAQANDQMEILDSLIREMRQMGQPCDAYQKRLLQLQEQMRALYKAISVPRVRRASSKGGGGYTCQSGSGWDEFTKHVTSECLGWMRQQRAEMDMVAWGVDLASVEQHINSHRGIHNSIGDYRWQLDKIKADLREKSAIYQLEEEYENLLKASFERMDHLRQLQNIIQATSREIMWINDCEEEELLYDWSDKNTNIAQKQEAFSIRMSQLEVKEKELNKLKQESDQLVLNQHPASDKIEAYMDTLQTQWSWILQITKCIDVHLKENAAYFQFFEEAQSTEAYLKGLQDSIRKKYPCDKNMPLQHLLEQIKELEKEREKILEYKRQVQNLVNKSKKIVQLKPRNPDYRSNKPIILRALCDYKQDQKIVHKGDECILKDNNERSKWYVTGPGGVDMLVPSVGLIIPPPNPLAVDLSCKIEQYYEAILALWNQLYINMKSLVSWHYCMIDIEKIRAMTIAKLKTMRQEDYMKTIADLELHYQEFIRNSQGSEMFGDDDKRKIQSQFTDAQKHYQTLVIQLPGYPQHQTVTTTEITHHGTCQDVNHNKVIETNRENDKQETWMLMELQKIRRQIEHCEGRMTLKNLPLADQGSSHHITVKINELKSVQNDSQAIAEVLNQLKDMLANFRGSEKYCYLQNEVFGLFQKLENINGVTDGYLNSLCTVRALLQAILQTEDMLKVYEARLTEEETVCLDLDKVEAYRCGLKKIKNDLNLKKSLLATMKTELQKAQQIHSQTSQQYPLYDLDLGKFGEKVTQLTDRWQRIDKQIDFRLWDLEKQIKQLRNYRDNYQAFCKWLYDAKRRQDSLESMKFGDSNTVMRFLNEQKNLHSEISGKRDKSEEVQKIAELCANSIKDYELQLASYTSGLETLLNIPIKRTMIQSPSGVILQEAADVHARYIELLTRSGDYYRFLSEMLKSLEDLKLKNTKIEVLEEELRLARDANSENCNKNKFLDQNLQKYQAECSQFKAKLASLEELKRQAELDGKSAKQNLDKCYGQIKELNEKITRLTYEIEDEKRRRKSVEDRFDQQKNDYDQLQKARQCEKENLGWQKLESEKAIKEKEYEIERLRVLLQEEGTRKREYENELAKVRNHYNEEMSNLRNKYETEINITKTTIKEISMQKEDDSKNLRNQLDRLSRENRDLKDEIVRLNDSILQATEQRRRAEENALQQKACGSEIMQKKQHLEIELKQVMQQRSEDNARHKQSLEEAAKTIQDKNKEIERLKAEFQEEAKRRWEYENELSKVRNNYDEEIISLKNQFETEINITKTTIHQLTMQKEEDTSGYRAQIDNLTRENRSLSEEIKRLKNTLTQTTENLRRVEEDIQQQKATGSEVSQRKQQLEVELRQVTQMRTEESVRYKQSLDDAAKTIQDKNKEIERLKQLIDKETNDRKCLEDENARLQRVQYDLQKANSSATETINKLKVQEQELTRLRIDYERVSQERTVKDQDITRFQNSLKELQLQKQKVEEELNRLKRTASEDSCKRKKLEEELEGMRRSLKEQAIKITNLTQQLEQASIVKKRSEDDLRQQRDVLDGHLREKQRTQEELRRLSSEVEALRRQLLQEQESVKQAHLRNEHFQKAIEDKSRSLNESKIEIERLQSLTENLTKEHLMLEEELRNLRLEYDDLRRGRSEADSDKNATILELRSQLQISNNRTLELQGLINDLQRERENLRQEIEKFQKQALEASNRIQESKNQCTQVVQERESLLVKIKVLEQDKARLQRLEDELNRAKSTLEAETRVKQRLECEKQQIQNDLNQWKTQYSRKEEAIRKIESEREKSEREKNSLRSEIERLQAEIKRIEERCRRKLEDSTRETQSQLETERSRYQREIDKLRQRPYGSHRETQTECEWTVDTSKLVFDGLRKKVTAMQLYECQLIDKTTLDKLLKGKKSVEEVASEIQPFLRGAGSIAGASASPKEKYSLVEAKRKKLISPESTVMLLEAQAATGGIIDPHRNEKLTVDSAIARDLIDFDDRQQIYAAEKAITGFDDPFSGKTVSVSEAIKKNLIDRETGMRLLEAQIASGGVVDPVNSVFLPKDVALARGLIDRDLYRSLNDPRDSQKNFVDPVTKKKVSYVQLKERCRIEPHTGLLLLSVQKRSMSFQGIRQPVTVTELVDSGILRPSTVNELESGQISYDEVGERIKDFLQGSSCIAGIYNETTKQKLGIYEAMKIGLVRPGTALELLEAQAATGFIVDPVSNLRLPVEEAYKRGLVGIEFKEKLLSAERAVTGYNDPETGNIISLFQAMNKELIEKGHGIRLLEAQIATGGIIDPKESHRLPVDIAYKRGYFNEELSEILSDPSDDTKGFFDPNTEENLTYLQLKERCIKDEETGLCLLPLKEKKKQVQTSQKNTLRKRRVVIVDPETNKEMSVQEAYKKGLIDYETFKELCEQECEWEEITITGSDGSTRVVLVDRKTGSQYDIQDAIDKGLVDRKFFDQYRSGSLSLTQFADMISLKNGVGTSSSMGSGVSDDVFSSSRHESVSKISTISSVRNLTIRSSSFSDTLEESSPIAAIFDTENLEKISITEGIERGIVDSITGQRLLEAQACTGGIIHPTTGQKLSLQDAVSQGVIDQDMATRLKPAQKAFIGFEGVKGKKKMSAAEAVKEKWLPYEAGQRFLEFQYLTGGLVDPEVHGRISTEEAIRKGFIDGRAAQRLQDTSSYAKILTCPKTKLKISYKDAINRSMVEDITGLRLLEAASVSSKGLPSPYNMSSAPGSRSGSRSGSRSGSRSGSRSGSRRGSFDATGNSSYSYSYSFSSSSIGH

Target: HER2 with eGFP tag, doxycycline-induced in MCF10A-Teti-HER2_GFP cells (UniProt P04626)
Assay: co-IP

binding | Substance
binds | Vimentin (from UniProt P08670 1-466)
binds | Desmoplakin (from UniProt P15924 1-2871)
